# Results taken from the supplement of paper PMC4371806.
# In all, about 1,600 compounds were measured (“plate-normalized OD600 growth (mean of duplicates)”: median about 0.31, lowest 2% from about 0.23 on). The list shows a part of the results.
# Test system: Escherichia coli BW25113
# Assay: plate-normalized OD600 growth (mean of duplicates) (OD600 (normalized)); higher = more growth (less inhibition)
# Details: 10 µM
# Method: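 E. coli BW25113 in LB (100 µl, 96-well, no shaking) was exposed to 10 µM of each compound (here the ChemBridge subset of a ~30,000-member library) and grown at 37°C for 24 h or 15°C for 48 h, in duplicate. Growth was read as OD600 and the duplicate ODs were normalized across screening plates to correct plate-to-plate variation.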
Compound,"plate-normalized OD600 growth (temperature: 15°C, 48 h)","plate-normalized OD600 growth (temperature: 37°C, 24 h)"
COCCCNC(=O)c1cccc(C)c1,0.249,0.615
CCC(=O)N1CCN(c2ccc([N+](=O)[O-])cc2F)CC1,0.25,0.627
CC1(C)CC(=O)C2=C(C1)N(c1cccc(O)c1)C(=O)CC2c1ccccc1 (stereo not given),0.24,0.597
CN1CCN(C2CC(=O)N(N(C)C)C2=O)CC1 (stereo not given),0.233,0.604
CC(C)N(C(=O)c1cccs1)C(C)C,0.257,0.626
COc1ccc(NC(=O)c2ccccc2OC)cc1OC,0.248,0.615
CC(C)C(O)(C#CC(O)(C(C)C)C(C)C)C(C)C,0.247,0.625
NC(=O)C1CCCN(CCc2ccccc2)C1 (stereo not given),0.268,0.632
CC1(C)CC(=O)C([N+](=O)[O-])=C(NCc2ccccc2)C1,0.253,0.633
C=C(C)C(C)(O)C#CCN1CCCCC1 (stereo not given),0.251,0.612
O=C(c1sc2ccccc2c1Cl)N1CCN(CCN2C(=O)C3C4C=CC(C4)C3C2=O)CC1 (stereo not given),0.243,0.611
Cc1sc(N)nc1C12CC3CC(CC(C3)C1)C2,0.245,0.58
CCCCOc1ccc(CN2CCC(O)CC2)cc1,0.272,0.664
CC(Cc1c[nH]c2ccccc12)N1C(=O)CCC1=O (stereo not given),0.275,0.623
COc1cc(CNc2ccc(C)cc2Br)cc(OC)c1OC,0.254,0.621
N#CC(=CC=Cc1ccccc1)c1nc(-c2ccc3c(c2)OCO3)cs1,0.252,0.609
COc1ccc(CN2CCN(C(C)=O)CC2)c(C)c1C,0.262,0.626
Cc1cc(N2CCCCC2)c(F)cc1[N+](=O)[O-],0.235,0.621
N#C/C(=C/c1ccc2c(c1)OCO2)c1ccc(Cl)cc1,0.248,0.642
CCOc1ccc(C(=O)c2ccc([N+](=O)[O-])cc2Cl)cc1,0.265,0.637
NS(=O)(=O)c1ccc(Cl)c(C(=O)Nc2cccc([N+](=O)[O-])c2)c1,0.25,0.605
COc1ccc2[nH]cc(CCN3C(=O)c4ccccc4C3=O)c2c1,0.235,0.613

Compound,"plate-normalized OD600 growth (temperature: 15°C, 48 h)","plate-normalized OD600 growth (temperature: 37°C, 24 h)"
NC(=O)c1ccccc1NC(=O)c1ccc(Cl)c(Cl)c1,0.255,0.605
CCn1c2ccccc2n2cc(C)nc12,0.276,0.635
Cc1cc(C)nc(SCCN(C)C)n1,0.242,0.609
N#Cc1c(-c2ccccc2)cc(-c2ccco2)c(C#N)c1N,0.255,0.622
CCN(CC)CCCOc1ccc([N+](=O)[O-])cc1,0.246,0.624
O=C(O)c1ccc(N2C(=O)CC(N3CCN(c4ccccn4)CC3)C2=O)cc1 (stereo not given),0.244,0.618
COc1ccc(/C=C/c2[nH]c(=O)[nH]c(=O)c2[N+](=O)[O-])cc1Br,0.258,0.62
COc1ccc(C(=O)Nc2ccccc2-c2ccccc2)cc1,0.256,0.635
O=C(c1ccccc1)c1cc(F)c(N2CCOCC2)cc1Cl,0.239,0.601
O=[N+]([O-])c1ccc(S(=O)(=O)N2CCCCCC2)cc1,0.269,0.616
CN1C=CC=C/C1=C\C=C1\C=Nc2ccccc21,0.258,0.635
COc1ccc(N2CCN(Cc3cccc(OC)c3OC)CC2)cc1,0.254,0.625
CC(NC(=O)C(c1ccccc1)c1ccccc1)c1ccccc1 (stereo not given),0.269,0.641
Cc1cc(C)n(-c2c(F)c(F)c(CO)c(F)c2F)n1,0.256,0.631
CN(Cc1ccc2c(c1)OCO2)C1CCCCC1,0.253,0.606
O=C(/C=C/c1cc2c(cc1Br)OCO2)c1cccs1,0.249,0.622
CCN(CC)C(=O)c1ccc([N+](=O)[O-])o1,0.247,0.627
O=S(=O)(NC1CC1)c1ccc(Br)cc1,0.248,0.603
CC(=O)c1sc(Nc2ccc(Oc3ccccc3)cc2)nc1C,0.223,0.607
COc1ccc(CN2CCc3c([nH]c4ccccc34)C2)cc1C,0.231,0.599
O=C(Nc1cc(Cl)ccc1Cl)c1ccc(Br)o1,0.236,0.61
N#CCNC1CC(=O)N(c2ccc(Cl)cc2)C1=O (stereo not given),0.244,0.613

# 3 records drawn at random from the list so far:
Compound,"plate-normalized OD600 growth (temperature: 15°C, 48 h)","plate-normalized OD600 growth (temperature: 37°C, 24 h)"
CCn1c2ccccc2n2cc(C)nc12,0.276,0.635
Cc1cc(C)n(-c2c(F)c(F)c(CO)c(F)c2F)n1,0.256,0.631
COCCCNC(=O)c1cccc(C)c1,0.249,0.615

# Later entries.

Compound,"plate-normalized OD600 growth (temperature: 15°C, 48 h)","plate-normalized OD600 growth (temperature: 37°C, 24 h)"
CN(Cc1ccccc1)C1CC(=O)N(c2ccc(Br)cc2)C1=O (stereo not given),0.247,0.599
O=C(O)CCCC(=O)Nc1ccccc1Br,0.239,0.581
CC1(C)CC(=O)c2c(CC3CC(=O)NC(=O)C3)noc2C1,0.222,0.614
CC(=O)N1c2ccccc2NC2=C(C(=O)CC(C)(C)C2)C1c1cccn1C (stereo not given),0.253,0.612
CC(=O)c1sc(N2N=C(c3ccccc3)CC2c2ccccc2)nc1C (stereo not given),0.254,0.656
CC(CN1CCOCC1)c1ccccc1 (stereo not given),0.258,0.619
CC(=O)Nc1c(Cl)cnn(-c2ccccc2)c1=O,0.303,0.645
CCOC(=O)Nc1cccnc1[N+](=O)[O-],0.271,0.648
O=C(O)c1ccc2c(c1)C(=O)N(c1c[nH]c(=O)[nH]c1=O)C2=O,0.239,0.592
COCC(O)CN1CCN(c2ccc(Cl)cc2[N+](=O)[O-])CC1 (stereo not given),0.239,0.607
CCCOc1ccc(NC(=O)c2ccc([N+](=O)[O-])cc2)cc1,0.244,0.624
COc1ccc2[nH]c3ccc([N+](=O)[O-])cc3c(=O)c2c1,0.291,0.631
CC(=O)Nc1ccc2nc3c(=O)n(C)c(=O)n(C)c3nc2c1,0.241,0.617
COc1ccc(Cc2ccc(OC)c(N)c2)cc1N,0.254,0.632
Cc1ccc(S(=O)(=O)c2cc(O)ccc2O)cc1C,0.254,0.619
CC1CC(Nc2ccccc2)c2ccccc2N1 (stereo not given),0.265,0.615
Cc1ccc(C2=C(O)c3ccccc3C(=O)C2=O)cc1,0.252,0.603
CC(C)(C)Sc1cc(C(=O)O)sc1C(=O)O,0.244,0.634
CCN1CCN(C2CCC(C(C)(C)C)CC2)CC1 (stereo not given),0.252,0.595
O=C(NCCc1c[nH]c2ccc(OCc3ccccc3)cc12)C1CC1,0.26,0.618
CC(C)(C)c1ccc(S(=O)(=O)CCc2ccccn2)cc1,0.256,0.609
O=C(Nc1cccc([N+](=O)[O-])c1)C1CC1c1ccccc1 (stereo not given),0.253,0.617

Compound,"plate-normalized OD600 growth (temperature: 15°C, 48 h)","plate-normalized OD600 growth (temperature: 37°C, 24 h)"
COc1ccc(CC(=O)Nc2ccccc2Br)cc1,0.236,0.608
c1ccc(COc2cccc(CN3CCSCC3)c2)cc1,0.245,0.584
CC(=O)c1c(C)nc2ccccn12,0.248,0.622
COc1cccc(C(N)CC(=O)O)c1 (stereo not given),0.238,0.649
NC(=O)c1ccc(C(N)=O)c(-c2ccccc2)c1,0.258,0.6
CCOc1ccc(C(=O)Nc2ccc(S(=O)(=O)Nc3nccs3)cc2)cc1,0.241,0.613
O=C(c1ccccc1Cl)N1CCN(c2ccc(F)cc2)CC1,0.247,0.613
CN(C)CCN(C)Cc1ccc(Cl)cc1Cl,0.252,0.616
Cc1ccc(S(=O)(=O)NCC23C=CC(O2)C2C(=O)N(Cc4ccccc4)C(=O)C23)cc1 (stereo not given),0.236,0.591
O=C(O)CC1c2ccccc2Oc2ccccc21,0.243,0.616
Cc1nc2cc(Cl)ccc2n1Cc1ccccc1,0.256,0.597
O=C1C2C(c3cccc(F)c3)OC3(C(=O)c4ccccc4C3=O)C2C(=O)N1C1CCCCC1 (stereo not given),0.25,0.622
C1CCCC(NCCCN2CCOCC2)CC1,0.246,0.609
Cc1cccc(C)c1NC(=O)CN1CCCCC1,0.241,0.618
O=C(O)CCCNc1ccc(S(=O)(=O)O)cc1,0.237,0.591
NCCOc1ccccc1Cc1ccccc1,0.26,0.63
COc1cccc(NC(=O)c2ccncc2)c1,0.261,0.618
O=C(O)CN1C(=O)C(=O)c2ccccc21,0.261,0.62
CCn1c(C)nc2cc(Cl)c(Cl)cc21,0.277,0.66
CN1CCCN(CC2CC3C=CC2C3)CC1 (stereo not given),0.225,0.656
Cc1cc(C)nc(SCCN2CCCC2)n1,0.25,0.615
O=C(O)C1C(=O)NCC1c1ccccc1 (stereo not given),0.251,0.651

Compound,"plate-normalized OD600 growth (temperature: 15°C, 48 h)","plate-normalized OD600 growth (temperature: 37°C, 24 h)"
O=C(Nc1ccc([N+](=O)[O-])cc1)c1ccco1,0.245,0.626
Cc1cc([N+](=O)[O-])ccc1NC(=O)c1ccc(F)cc1,0.259,0.647
Cc1c(C#N)c(N=CN(C)C)c(C(=O)c2ccccc2)n1-c1ccccc1,0.246,0.596
Cc1nn(-c2ccccc2)c(N2CCCCC2)c1C=O,0.266,0.62
O=C(CCCOc1ccc(Cl)cc1Cl)N1CCCCC1,0.241,0.613
COc1ccccc1CNC(=O)C(c1ccccc1)c1ccccc1,0.248,0.614
CCN1CCC(N2CCN(c3ccc(F)cc3)CC2)CC1,0.239,0.611
O=C(COc1ccc(Cl)cc1Cl)Nc1ccc(C(=O)O)cc1,0.261,0.618
N#C/C(=C/C=C/c1ccccc1)c1nc(-c2cccs2)cs1,0.261,0.623
Cc1nnc(Sc2ccc(C=O)o2)s1,0.227,0.604
O=C(Nc1ccccc1[N+](=O)[O-])c1cccc(S(=O)(=O)Nc2ccccc2)c1,0.26,0.614
Cc1ccc(OCCCN2CCOCC2)cc1C,0.257,0.611
O=C1c2ccccc2C(=O)C1c1nc2ccccc2[nH]1,0.269,0.667
COc1ccc(N2CCN(Cc3ccc(C)o3)CC2)cc1,0.253,0.596
c1ccc2c(c1)CCN(Cc1ccncc1)C2,0.236,0.651
Cc1ccc(C(=O)Nc2cc(C)c(O)cc2C)cc1,0.252,0.613
CCN1CCN(C/C=C/c2ccccc2)CC1,0.28,0.634
CCc1nnc(NC(=O)CCc2ccccc2)s1,0.235,0.605
O=C1CCCc2occ(-c3ccc([N+](=O)[O-])cc3)c21,0.253,0.634
Cc1nc(-c2ccccc2)cc(N2CCCC2)n1,0.253,0.616
COc1ccc(OC)c(NC(=O)CCN2CCCC(C)C2)c1 (stereo not given),0.257,0.614
COc1ccccc1N1CCN(Cc2ccsc2)CC1,0.256,0.609

# In the list so far, these contain two or more sulfur atoms:
Compound,"plate-normalized OD600 growth (temperature: 15°C, 48 h)","plate-normalized OD600 growth (temperature: 37°C, 24 h)"
CC(C)(C)Sc1cc(C(=O)O)sc1C(=O)O,0.244,0.634
CCOc1ccc(C(=O)Nc2ccc(S(=O)(=O)Nc3nccs3)cc2)cc1,0.241,0.613
N#C/C(=C/C=C/c1ccccc1)c1nc(-c2cccs2)cs1,0.261,0.623
Cc1nnc(Sc2ccc(C=O)o2)s1,0.227,0.604
